# From the supplement of paper PMC12823440, “Inhibitors supercharge kinase turnover through native proteolytic circuits” (Nature, 2025)
# Protein sequences, listed by entry. Tags and fused reporters are not part of them. Lines headed by an entry give the natural chain unless they say otherwise; changes in a name come on top.
# UniProt P53671: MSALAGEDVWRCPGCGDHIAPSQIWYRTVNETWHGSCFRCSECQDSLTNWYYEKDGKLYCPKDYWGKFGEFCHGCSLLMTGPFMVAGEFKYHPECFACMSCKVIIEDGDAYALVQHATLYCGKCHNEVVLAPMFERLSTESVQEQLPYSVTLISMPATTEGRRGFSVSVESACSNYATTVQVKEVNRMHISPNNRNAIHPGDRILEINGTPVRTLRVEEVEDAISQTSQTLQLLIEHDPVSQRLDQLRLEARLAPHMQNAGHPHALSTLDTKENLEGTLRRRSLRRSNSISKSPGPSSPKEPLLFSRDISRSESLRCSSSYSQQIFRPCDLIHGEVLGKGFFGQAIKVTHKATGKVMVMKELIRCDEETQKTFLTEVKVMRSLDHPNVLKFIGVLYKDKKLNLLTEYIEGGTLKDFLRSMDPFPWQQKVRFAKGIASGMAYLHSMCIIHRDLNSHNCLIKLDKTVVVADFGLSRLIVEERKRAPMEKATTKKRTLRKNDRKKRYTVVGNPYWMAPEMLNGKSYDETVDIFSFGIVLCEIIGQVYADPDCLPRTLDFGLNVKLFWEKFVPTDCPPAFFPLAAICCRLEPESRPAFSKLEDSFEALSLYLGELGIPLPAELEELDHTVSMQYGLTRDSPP
# Where a name gives a salt, the structure may show the parent alone. The list shows a part of the results. The calls rarely recur for the same compound in another form.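 Kinases, fused to nanoluciferase, were expressed in K562 cells; luminescence was measured every 4 h from 2 to 18 h as percent of control (DMSO = 100%, positive control = 0%). A time point is decreased if signal falls significantly (2 sigma). Hits were called by the authors by a rule that is not shown; the count of time points alone does not decide it.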
# Biological target: LIMK2 (UniProt P53671)
# Experiment: number of time points (of 5) at which kinase-Nluc abundance scored as decreased, DMSO-normalised (count); higher = more persistent destabilization
# Conditions: K562; 2-18 h
row,SMILES,number of time points
1,Cc1cnc(Cl)nc1-c1ccc(N(Cc2ccc(CNC(=O)C(F)F)cc2)C(=O)c2ccc(O)cc2O)cc1 (10 µM),0
2,COc1cc2c(cc1OC)[C@@H]1C(=O)c3ccc4c(c3O[C@@H]1CO2)C=CC(C)(C)O4 [Deguelin] (10 µM),0
3,CC(C)(CCCCCC(O)CCCCCC(C)(C)C(=O)O)C(=O)O [Bempedoic acid] (10 µM),0
4,COc1cc2nnc(C(N)=O)c(Nc3ccc(C)cc3F)c2cc1N1CCN(CCO)CC1 (2.5 µM),0
5,O=C(Nc1ccc(Cl)cc1)C1CN(C(=O)c2cccc(-c3ccco3)c2)CC(F)(F)C1 (stereo not drawn) (2.5 µM),0
6,CC(=O)O[C@@H]1[C@@H](OC(C)=O)[C@@H](O)[C@H](Oc2c(-c3ccc(O)cc3)oc3cc(O)cc(O)c3c2=O)O[C@H]1C (10 µM),0
7,COc1cc2nc(-c3cc(F)ccc3O)nc(N[C@@H]3CNC[C@H]3C(C)(C)O)c2cc1OC (2.5 µM),0
8,C=CC(=O)Nc1cccc(Oc2nc(Nc3ccc(N4CCN(C)CC4)cc3OC)ncc2Cl)c1 (10 µM),0
9,C=CC(=O)Nc1cc(Nc2nccc(-c3cn(C)c4ccccc34)n2)c(OCC(F)(F)F)nc1N(C)CCNC [AST5902  (trimesylate)] (2.5 µM),1
10,O=C1C=CC2=C3c4cc(O)c(O)cc4CC3(O)COC2=C1O (stereo not drawn) [Hematein] (10 µM),0
11,CCC(F)(F)c1cc(N2CCC(S(C)(=O)=O)CC2)nc2sc(C(N)=O)c(N)c12 (10 µM),0
12,Cn1cc(C2=C(c3ccc(Cl)cc3Cl)C(=O)NC2=O)c2ccccc21 (10 µM),0
13,CCOC(=O)c1c(N2CCc3ccc(OC)cc3C2)oc(C=C2C=Nc3ncccc32)c1O (10 µM),0
14,O=C(COc1ccc(Cl)cc1)NC1CCC(NC(=O)COc2ccc(Cl)cc2)CC1 (stereo not drawn) [ISRIB (trans-isomer)] (10 µM),0
15,COc1ccc(CCNCc2ccc(OCc3ccc(Cl)nc3)c(OC)c2)cc1OC [SBE13 (Hydrochloride)] (10 µM),0
16,Cc1cccc(CC(=O)N2CCc3c2ccc(-c2cn(C)c4ncnc(N)c24)c3F)n1 (10 µM),0
17,COc1cc(N2CCC(N3CCN(C)CC3)CC2)ccc1Nc1ncnc(Nc2ccccc2S(=O)(=O)C(C)C)n1 (10 µM),0
18,CC(C)(Oc1ccc(Cl)cc1)C(=O)Nc1ccc(OCc2ccc(C#N)cc2)cc1 [AMPK activator 4] (10 µM),0
19,Cc1cc(N2CCOCC2)ccc1Nc1nc(NC2CCCCC2)c2[nH]cnc2n1 (10 µM),0

# Look-ups from above:
# Value for COc1cc2nc(-c3cc(F)ccc3O)nc(N[C@@H]3CNC[C@H]3C(C)(C)O)c2cc1OC (2.5 µM) under number of time points: 0
# Value for Cc1cc(N2CCOCC2)ccc1Nc1nc(NC2CCCCC2)c2[nH]cnc2n1 (10 µM) under number of time points: 0

# Next records follow:

row,SMILES,number of time points
1,COC(=O)N1CCN(C2CCC(Nc3nc(Nc4cnn(C)c4)nc4ccc(CC#N)nc34)CC2)CC1 (stereo not drawn) (10 µM),0
2,CN(C)CCn1cc2cc(NC(=O)c3cccc(C(F)(F)F)n3)c(C(C)(C)O)cc2n1 (10 µM),0
3,CCOc1cc(N2CCC(O)CC2)ccc1Nc1ncc2c(n1)N(C1CCCC1)CCC(=O)N2C (2.5 µM),0
4,CCC[C@H](C)Oc1nc(N)c2[nH]c(=O)n(CCCCCN3CCCCC3)c2n1 (10 µM),0
5,Fc1ccc(-c2nc3n(c2-c2ccncc2)CCS3)cc1 (10 µM),0
6,CC(ONC(=O)c1cc(C(F)(F)F)cc(C(F)(F)F)c1)C(=O)Nc1ccc(Cl)cc1 (stereo not drawn) (2.5 µM),0
7,O=C(Nc1ccccc1C(=O)NC1CCCCNC1=O)c1cc2ccccc2s1 (stereo not drawn) (10 µM),0
8,N#CC(=C(/N)Sc1ccccc1N)/C(C#N)=C(\N)Sc1ccccc1N (10 µM),0
9,Nc1ccc(O)c(C(=O)O)c1 [5-Aminosalicylic Acid] (10 µM),0
10,CNCc1ccccc1Sc1cccc2ccccc12 [IFN alpha-IFNAR-IN-1 (hydrochloride)] (10 µM),0
11,CCCCNc1ncc2c(-c3ccc(F)cc3)nn(CC3CCC(N)CC3)c2n1 (stereo not drawn) (2.5 µM),0
12,Cc1ncsc1-c1ccc(CNC(=O)[C@@H]2C[C@@H](O)CN2C(=O)[C@@H](NC(=O)COCCOc2ccc(-c3cc(Nc4ccc(OC(F)(F)F)cc4)ncn3)cc2)C(C)(C)C)cc1 (2.5 µM),2
13,Cn1cnc2c(F)c(Nc3ccc(Br)cc3F)c(C(=O)NOCCO)cc21 [Binimetinib] (10 µM),0
14,O=C1NC(=O)C(Cc2c[nH]c3c(Cl)cccc23)N1 (stereo not drawn) [Necroptosis-IN-1] (10 µM),0
15,C=CC(=O)N1CCC(c2ccc(C(N)=O)c(-c3ccc(Oc4ccccc4)cc3)n2)CC1 [Orelabrutinib] (2.5 µM),0
16,CN1C(=O)N[C@@H](Cc2c[nH]c3c(Cl)cccc23)C1=O [Necrostatin 2 (S enantiomer)] (10 µM),0
17,N#Cc1cc(-c2ccnc(Nc3ccc(N4CCOCC4)cc3)n2)ccc1OC1CCOCC1 (10 µM),0
18,COc1cccc(-c2cc(=O)c3ccccc3o2)c1N (10 µM),0
19,Nc1ccc(Sc2nc3ccccc3s2)c(Cl)c1 [KRAS inhibitor-9] (10 µM),0
